Assay results from article PMC7819943, “Rice protein-binding microarrays: a tool to detect cis-acting elements near promoter regions in rice”.
Some of the results follow.

The sequences below were run against T1, OsSMF1 (Oryza sativa, UniProt Q6ZLB0 1-436) (assay: protein-binding microarray (RPBM); PBS, 2% BSA, 51.3 ng/ul salmon testes DNA, 50 uM zinc acetate, 200 nM TF, 25 C, 1 h; high values mean tight binding). Details: protein: recombinant; tags: N-terminal polyhistidine and DsRed monomer fusion (pET32a); chain copies: 2; label: CyDye5-dUTP incorporated in the synthesized complementary strand; 3' TTTTT single-stranded linker to array surface; dsDNA, one strand shown.
T1 sequence: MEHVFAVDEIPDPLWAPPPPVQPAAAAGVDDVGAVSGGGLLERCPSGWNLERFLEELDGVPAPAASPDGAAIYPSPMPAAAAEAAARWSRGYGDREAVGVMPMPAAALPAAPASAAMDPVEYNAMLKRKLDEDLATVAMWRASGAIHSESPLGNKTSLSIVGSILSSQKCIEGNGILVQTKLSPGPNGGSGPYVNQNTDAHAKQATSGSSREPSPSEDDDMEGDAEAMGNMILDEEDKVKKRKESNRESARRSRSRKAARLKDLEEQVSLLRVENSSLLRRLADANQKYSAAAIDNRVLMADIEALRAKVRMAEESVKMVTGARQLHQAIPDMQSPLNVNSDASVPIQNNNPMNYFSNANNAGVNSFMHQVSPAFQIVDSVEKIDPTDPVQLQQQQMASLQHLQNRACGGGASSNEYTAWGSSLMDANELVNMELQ
Method in brief: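 For the binding signal, per-feature fluorescence intensity was read in arbitrary units on an Axon 4000B scanner. Before scanning, a 2% BSA-blocked custom Agilent array made double-stranded with Cy5-dUTP was washed after 1 h at 25 °C with 200 nM protein and 50 µM zinc acetate. The proteins were Ni–NTA-purified transcription factors with N-terminal polyhistidine and DsRed fusions, expressed in E. coli BL21-CodonPlus.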

| Sequence | binding signal |
| --- | --- |
| GATCCAATACGAGACCGACACGTCGTCAGCGACCAAGTAACGGAGTCACCTAGTGCAG | 4420 fluorescence intensity (a.u.) |
| CGTAACGCGATCGAGAACCGACTCAGCCGAGACTCATCGTCGGAGTCACCTAGTGCAG | 3710 fluorescence intensity (a.u.) |
| AGCGTGCATCATGGATGATAATGCGGTGGCATGAGACCTGCGGAGTCACCTAGTGCAG | 18300 fluorescence intensity (a.u.) |
| AAAATACCCTAACCTAACAAGGGCGATATGCAGCTGACATCGGAGTCACCTAGTGCAG | 38600 fluorescence intensity (a.u.) |
| TCATGATGGTTTTGAAATTATTCTGACACGAAAGTTTGTGCGGAGTCACCTAGTGCAG | 3760 fluorescence intensity (a.u.) |
| CGCGCTCGCCCTCCGTTGCGCCACCCGCATCCTGGCTCGCCGGAGTCACCTAGTGCAG | 3510 fluorescence intensity (a.u.) |
| CTAAGCATGATGCTGCTATCCATCTCCCGTTGAAGGTGAGCGGAGTCACCTAGTGCAG | 3300 fluorescence intensity (a.u.) |
| GCGGCGGCGGATGGACGGGGACTGATGCAGCTGTCGTCAGCGGAGTCACCTAGTGCAG | 3160 fluorescence intensity (a.u.) |
| CTATGCCACTGACGTCACCTTTTCTATCCATCCTCTCCATCGGAGTCACCTAGTGCAG | 19000 fluorescence intensity (a.u.) |
| ATCATATATATTCAGTTATCATCTAAATGACATTTGGGACCGGAGTCACCTAGTGCAG | 3500 fluorescence intensity (a.u.) |
| GTGTTAGAAACATCGTTCATATCATACACGTACACGTGGACGGAGTCACCTAGTGCAG | 6780 fluorescence intensity (a.u.) |
| TCCTCGCGATGGCGGCTCGAGCCACGCACCGTGACACGCGCGGAGTCACCTAGTGCAG | 3410 fluorescence intensity (a.u.) |
| CTGGCATCTTGGACGTGGGCACGTGCACGTAGGACCAGAACGGAGTCACCTAGTGCAG | 4350 fluorescence intensity (a.u.) |
| GCAAATTCATGTCATCTTCGATGAAACGCCAACGTCAAAGCGGAGTCACCTAGTGCAG | 3360 fluorescence intensity (a.u.) |
| CCGGCCCACCAAACGTAGGCCACCTATATCACATTGGACCCGGAGTCACCTAGTGCAG | 3580 fluorescence intensity (a.u.) |
| TCCCCTCGCATCCATAAAAGCAGCCCCGAGCCGCGCGTGGCGGAGTCACCTAGTGCAG | 3230 fluorescence intensity (a.u.) |
| GTCACTGAGATAGGTGTGGCAAATAGTTAATTGATAAATCCGGAGTCACCTAGTGCAG | 28400 fluorescence intensity (a.u.) |
| TGACCAATCGTACGTGGGCCGATATACCCATGGACCATGGCGGAGTCACCTAGTGCAG | 3240 fluorescence intensity (a.u.) |
| CGCGACTACGACAGCCGCACGCCGCTCCACGTCGCTGCGCCGGAGTCACCTAGTGCAG | 4400 fluorescence intensity (a.u.) |
| ATTTCTGACACGGACCAGCTATTGACCTACCTCACTGACACGGAGTCACCTAGTGCAG | 4050 fluorescence intensity (a.u.) |
| CCCCGTGGTCCTGCTGCCTGCCACGTCGCCGCCGAACAAGCGGAGTCACCTAGTGCAG | 8270 fluorescence intensity (a.u.) |
| ATGGCCTCCGTCAGAGCACTGATGTGTTACGTCGTATGCTCGGAGTCACCTAGTGCAG | 3680 fluorescence intensity (a.u.) |
| TCGCCATTAATTACTATTGCGATCTTGAGCCTGCGTGGCACGGAGTCACCTAGTGCAG | 6040 fluorescence intensity (a.u.) |
| GCAGCTGAAGTGGACCTGTCAGCAAGTAAAGCCAAGAGGCCGGAGTCACCTAGTGCAG | 3470 fluorescence intensity (a.u.) |
| AAAATGGCGCGTGCCACGGCTCTCTCTCTCTCTCTCTCTCCGGAGTCACCTAGTGCAG | 3490 fluorescence intensity (a.u.) |
| TGTGCTGCTAATTAATTGCGTACACGCATGCATACACACACGGAGTCACCTAGTGCAG | 4860 fluorescence intensity (a.u.) |
| GTGTGTGCACACACGCCAGCAGCTCTGACCAGCTCGAGCTCGGAGTCACCTAGTGCAG | 5560 fluorescence intensity (a.u.) |

Copied from the list:
For binding signal, GTGTTAGAAACATCGTTCATATCATACACGTACACGTGGACGGAGTCACCTAGTGCAG has the entry 6780 fluorescence intensity (a.u.)
For binding signal, TCGCCATTAATTACTATTGCGATCTTGAGCCTGCGTGGCACGGAGTCACCTAGTGCAG has the entry 6040 fluorescence intensity (a.u.)
For binding signal, GTGTGTGCACACACGCCAGCAGCTCTGACCAGCTCGAGCTCGGAGTCACCTAGTGCAG has the entry 5560 fluorescence intensity (a.u.)

Going on with the list.

| Sequence | binding signal |
| --- | --- |
| CCCTCGTCCATCGCGTGCCACGTGGCGTGGAAGGCCGGAACGGAGTCACCTAGTGCAG | 18000 fluorescence intensity (a.u.) |
| TATAAACCAAAGAGTCATACTTTATTAGCCTATGAACCACCGGAGTCACCTAGTGCAG | 3530 fluorescence intensity (a.u.) |
| ATCAAGACCAGGCACGCCAACAAGGATGTAGTTGGGTATGCGGAGTCACCTAGTGCAG | 3150 fluorescence intensity (a.u.) |
| ATCTACCAACCAAGTATATATCATGTCATCACAACACGGTCGGAGTCACCTAGTGCAG | 3160 fluorescence intensity (a.u.) |
| TACTTATAATTAGTGTTAAACATCCGATGTGACGGGTACTCGGAGTCACCTAGTGCAG | 7570 fluorescence intensity (a.u.) |
| GTACGAACCGAGTGTGAGAGGGAGCACACGTCATCGCCGCCGGAGTCACCTAGTGCAG | 22600 fluorescence intensity (a.u.) |
| GCGTGCATGGATGGAGCGATGTCGCTGACGCCCGCTCGGCCGGAGTCACCTAGTGCAG | 4390 fluorescence intensity (a.u.) |
| TGGATCTATTGTATAGGTCAATAGGTGGCATCCACGTGTACGGAGTCACCTAGTGCAG | 13100 fluorescence intensity (a.u.) |
| TTCCAACACTAGGATGGTATATGAACCACCAGGATACAAACGGAGTCACCTAGTGCAG | 41800 fluorescence intensity (a.u.) |
| TCGATCAGTGGAAGGATATGAGTCATACCGCAAACAAAATCGGAGTCACCTAGTGCAG | 7490 fluorescence intensity (a.u.) |
| ATGCAGGCCACCTCACGCCACACGCTGTATCGCGCCCATACGGAGTCACCTAGTGCAG | 5790 fluorescence intensity (a.u.) |
| GTTTCTATCCCATCGAATGTTTGGACACTAATTATAAATACGGAGTCACCTAGTGCAG | 25600 fluorescence intensity (a.u.) |
| CACGAGACAAAACACAAAGCAGGACACAGTCACACAGGCTCGGAGTCACCTAGTGCAG | 3940 fluorescence intensity (a.u.) |
| AACCGAGAAGGACACGACAACGTGGACGAGCCCAACTCATCGGAGTCACCTAGTGCAG | 21900 fluorescence intensity (a.u.) |
| CATGCTTGATGACTTGATCAATTGATCTGCCGATGGAAGTCGGAGTCACCTAGTGCAG | 3640 fluorescence intensity (a.u.) |
| GTAGCGTGTGACGTGTGCGTCTCCGACTCCTCCGGCCGGTCGGAGTCACCTAGTGCAG | 7890 fluorescence intensity (a.u.) |
| TGCTAATTGTTTGCGTGGTCATGAACTAGACCTCACTTGACGGAGTCACCTAGTGCAG | 3440 fluorescence intensity (a.u.) |
| CGAGAGGGCGAAGCACCAAGGCGACTCGCCACGCAAAGCGCGGAGTCACCTAGTGCAG | 3510 fluorescence intensity (a.u.) |
| ATCATCTCGTTTTGTGTGAAACACTTCATCTTCATCTTCACGGAGTCACCTAGTGCAG | 3310 fluorescence intensity (a.u.) |
| CGAGGTCGCCGGGGAATCCTTGGGTGACGCCACCTCCGCCCGGAGTCACCTAGTGCAG | 5380 fluorescence intensity (a.u.) |
| CCTCGTCAGAGTTCAGATATATCTGTCATCCTTTCTTCCCCGGAGTCACCTAGTGCAG | 3350 fluorescence intensity (a.u.) |
| GGTATTGCTGTATTTATTTTGGTGTGGTTGAGAGTCTAGTCGGAGTCACCTAGTGCAG | 4096 fluorescence intensity (a.u.) |
| TCCGTTGCCGTCTCCGGCGCCGGCGGCGCTGCCACGGGGTCGGAGTCACCTAGTGCAG | 4180 fluorescence intensity (a.u.) |
| CTTAGAAACAATGGAGCAAGAGTTGGTCACCACTCAGTCACGGAGTCACCTAGTGCAG | 4620 fluorescence intensity (a.u.) |
| GTGATGTATGAGTGGCTGCCCTCCTGCCGCCATCCGTCGCCGGAGTCACCTAGTGCAG | 3270 fluorescence intensity (a.u.) |
| ATATGAAGCATAAAATGAGAGGAAAAGACAATGAGATGAGCGGAGTCACCTAGTGCAG | 33400 fluorescence intensity (a.u.) |
| GCAGCAGCAGTAGCTGCCGTCACTTCGCCACCACAGTGTTCGGAGTCACCTAGTGCAG | 23700 fluorescence intensity (a.u.) |
